The results in this text go back to publication PMC6214896.

Chains of the proteins cited; added tags and fusions are not shown.
UniProt Q9Z2D8: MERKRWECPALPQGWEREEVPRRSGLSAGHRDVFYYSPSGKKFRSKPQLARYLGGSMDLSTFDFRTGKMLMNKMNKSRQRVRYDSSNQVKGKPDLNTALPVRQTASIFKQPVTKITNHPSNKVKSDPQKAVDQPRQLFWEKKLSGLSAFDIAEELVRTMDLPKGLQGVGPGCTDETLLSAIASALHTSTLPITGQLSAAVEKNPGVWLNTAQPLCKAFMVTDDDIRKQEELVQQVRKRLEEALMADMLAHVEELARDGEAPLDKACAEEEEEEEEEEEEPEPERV
UniProt O09106: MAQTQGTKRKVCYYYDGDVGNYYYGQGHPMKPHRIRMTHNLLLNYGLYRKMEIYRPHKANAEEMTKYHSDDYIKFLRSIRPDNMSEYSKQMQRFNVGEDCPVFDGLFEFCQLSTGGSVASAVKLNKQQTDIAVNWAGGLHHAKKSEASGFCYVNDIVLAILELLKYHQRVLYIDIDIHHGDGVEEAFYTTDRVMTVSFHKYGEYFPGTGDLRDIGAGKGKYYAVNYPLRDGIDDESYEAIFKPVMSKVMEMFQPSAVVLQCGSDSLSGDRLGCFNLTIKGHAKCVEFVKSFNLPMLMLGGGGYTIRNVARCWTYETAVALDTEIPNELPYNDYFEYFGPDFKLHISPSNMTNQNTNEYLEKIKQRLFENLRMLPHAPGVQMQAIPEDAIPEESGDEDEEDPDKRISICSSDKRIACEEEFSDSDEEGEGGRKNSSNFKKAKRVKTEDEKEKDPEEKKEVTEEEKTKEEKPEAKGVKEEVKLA

These are yes or no findings as the source states them, for the method shown. In cells and extracts the contact can be indirect. Here binding means that the protein was enriched with, or labelled near, the bait; the list need not be complete.

The target of this assay is MBD3-GFP (mouse) (UniProt Q9Z2D8). Description: affinity purification with mass spectrometry; label-free GFP pulldown in triplicate: MBD3-GFP held on GFP-Trap beads from 2 mg ESC nuclear extract; Buffer C with 300 mM NaCl, 0.1% NP-40, 50 ug/mL ethidium bromide; on-bead digestion, nLC-MS/MS.

For “HDAC1 (from UniProt O09106 1-482) (enzyme)”, the binding result is “binds”.
